Among the data in publication PMC5645986 are binding values, retold here.

By UniProt entry, the sequences of proteins in these tests, tags left out.
UniProt Q04206: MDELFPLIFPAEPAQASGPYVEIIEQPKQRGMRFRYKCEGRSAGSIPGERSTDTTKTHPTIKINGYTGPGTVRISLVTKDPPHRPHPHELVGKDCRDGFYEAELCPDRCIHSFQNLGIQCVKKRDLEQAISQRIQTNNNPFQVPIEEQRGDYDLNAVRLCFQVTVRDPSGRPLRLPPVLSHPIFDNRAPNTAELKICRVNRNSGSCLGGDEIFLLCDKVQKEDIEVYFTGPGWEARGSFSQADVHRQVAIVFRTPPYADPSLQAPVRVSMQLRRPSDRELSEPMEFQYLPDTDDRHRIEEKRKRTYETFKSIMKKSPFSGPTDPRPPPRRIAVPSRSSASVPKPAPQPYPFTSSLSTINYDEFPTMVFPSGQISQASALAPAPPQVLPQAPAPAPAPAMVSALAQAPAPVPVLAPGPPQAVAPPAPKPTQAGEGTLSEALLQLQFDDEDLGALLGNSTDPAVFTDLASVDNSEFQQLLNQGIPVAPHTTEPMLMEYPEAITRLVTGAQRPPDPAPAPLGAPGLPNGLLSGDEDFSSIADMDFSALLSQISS
UniProt Q9P286: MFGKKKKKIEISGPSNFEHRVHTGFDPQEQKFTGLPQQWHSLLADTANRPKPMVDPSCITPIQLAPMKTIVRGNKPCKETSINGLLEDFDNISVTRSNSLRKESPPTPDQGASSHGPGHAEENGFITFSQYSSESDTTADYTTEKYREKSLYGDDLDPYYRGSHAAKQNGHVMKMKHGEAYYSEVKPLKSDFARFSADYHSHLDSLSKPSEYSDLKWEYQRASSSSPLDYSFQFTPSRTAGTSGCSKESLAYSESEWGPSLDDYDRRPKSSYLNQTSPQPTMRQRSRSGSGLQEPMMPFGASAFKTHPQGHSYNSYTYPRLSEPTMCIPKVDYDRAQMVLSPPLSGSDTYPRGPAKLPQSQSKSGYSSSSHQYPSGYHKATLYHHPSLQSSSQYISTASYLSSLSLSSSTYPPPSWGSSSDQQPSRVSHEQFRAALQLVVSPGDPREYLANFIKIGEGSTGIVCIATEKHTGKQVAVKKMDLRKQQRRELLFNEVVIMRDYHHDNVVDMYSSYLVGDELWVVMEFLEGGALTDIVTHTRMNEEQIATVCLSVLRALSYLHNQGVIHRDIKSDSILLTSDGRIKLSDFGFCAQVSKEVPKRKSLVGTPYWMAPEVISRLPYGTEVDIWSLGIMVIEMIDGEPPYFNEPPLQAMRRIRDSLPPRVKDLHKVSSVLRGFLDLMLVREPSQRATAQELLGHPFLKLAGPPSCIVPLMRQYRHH

Results are given in words; binding and its absence hold for the method and conditions named. In cells and extracts the contact can be indirect. Some binding calls cover weakened binding; strength is not graded here.

Assay [1] concerns the target p65 subunit of nuclear factor-kappaB (NF-κB), endogenous (human (endogenous in MDA-MB-231)) (UniProt Q04206). Kind of assay: co-IP; MDA-MB-231 cells transfected with the plasmids; RIPA lysates (1000 μg) with protease/phosphatase inhibitors precipitated 12-16 h with anti-p65 (Rabbit IgG as control), Protein A/G beads 2 h at 4 °C; blotted with anti-Myc and anti-p65.
Assay [2] concerns the target p65 subunit of nuclear factor-kappaB (NF-κB), expressed from pcDNA3.1-p65 (UniProt Q04206). Described as above.

As for “p21cdc42/rac1-activated kinase 5 (PAK5), Myc-tagged (from UniProt Q9P286 1-719) (enzyme)”, the binding result in assay [1] and in assay [2] was “binds” throughout.
